Data as given in the supplement of paper PMC11542785.
Structures can show the parent of a compound that is named as a salt. The list shows a part of the results. Many values rest on one well or one pass, so single values are uncertain.

Test system: Drosophila melanogaster DPAGT1 (Alg7) RNAi eye model
Assay: eye size Z-score vs DMSO-treated DPAGT1 model flies; higher = larger eye (suppression of DPAGT1 phenotype)
Settings: 5 uM

Structure (SMILES) | eye size Z-score | eye size Z-score (female)
Cc1c(C(=O)NN2CCCCC2)nn(-c2ccc(Cl)cc2Cl)c1-c1ccc(Cl)cc1 [Rimonabant] | 0.18 | 
COc1cc2c(cc1OC)CC(=O)N(CCCN(C)C[C@H]1Cc3cc(OC)c(OC)cc31)CC2 [Ivabradine hydrochloride] | 1.35 | 
C[C@H]1c2cccc(O)c2C(=O)C2=C(O)[C@]3(O)C(=O)C(C(N)=O)=C(O)[C@@H](N(C)C)[C@@H]3[C@@H](O)[C@@H]21 [Doxycycline hydrochloride] | -1.12 | 
Clc1ccc(C(Cn2ccnc2)OCc2ccsc2Cl)c(Cl)c1 (stereo unspecified) [Tioconazole] | 0.33 | 
CCCC1C(=O)N2C(N(C)C)=Nc3ccc(C)cc3N2C1=O (stereo unspecified) [Azapropazone] | 0.5 | 
c1cnc(N2CCN(Cc3ccc4c(c3)OCO4)CC2)nc1 [Piribedil] | 1.14 | 
CCOC(=O)O[C@]1(C(=O)OCCl)CC[C@H]2[C@@H]3CCC4=CC(=O)C=C[C@]4(C)[C@H]3[C@@H](O)C[C@@]21C [Loteprednol etabonate] | 0.12 | 
Cc1ccc(NC(=O)c2ccc(CN3CCN(C)CC3)cc2)cc1Nc1nccc(-c2cccnc2)n1 [Imatinib] | -0.58 | 
O=C(O)c1cn(C2CC2)c2cc(N3CCNCC3)c(F)cc2c1=O [Ciprofloxacin hydrochloride monohydrate] | 0.49 | 
CCOc1nc2cccc(C(=O)OCc3oc(=O)oc3C)c2n1Cc1ccc(-c2ccccc2-c2noc(=O)[nH]2)cc1 [Azilsartan medoxomil] | 0.1 | 
C#CCN[C@@H]1CCc2ccccc21 [Rasagiline] | -0.21 | 
COc1ccc(-c2cc(=S)ss2)cc1 [Anethole-trithione] | 0.1 | 
CCCN1CCCC[C@H]1C(=O)Nc1c(C)cccc1C [Ropivacaine hydrochloride] | 0.67 | 
COc1cc(C(=O)NCc2ccc(OCCN(C)C)cc2)cc(OC)c1OC [Trimethobenzamide hydrochloride] | -0.19 | 
CN1CC(=O)N2[C@H](c3ccc4c(c3)OCO4)c3[nH]c4ccccc4c3C[C@@H]2C1=O [Tadalafil] | -0.12 | 
C1CCC(C(CC2CCCCN2)C2CCCCC2)CC1 (stereo unspecified) [Perhexiline maleate] | 0 | 
CC(C)NCC(O)COc1ccc(CCOCC2CC2)cc1 (stereo unspecified) [Betaxolol hydrochloride] | -0.13 | 
CCc1nc(N)nc(N)c1-c1ccc(Cl)cc1 [Pyrimethamine] | 0.48 | 
CC(=O)[C@@]1(O)CC[C@H]2[C@@H]3C[C@H](C)C4=CC(=O)C=C[C@]4(C)[C@@]3(F)[C@@H](O)C[C@@]21C [Fluorometholone] | -0.57 | 
CCN(CC)CCNC(=O)c1cc(Cl)c(N)cc1OC [Metoclopramide monohydrochloride] | -0.15 | 
CC(C)=C/C(C)=N/Nc1nncc2ccccc12 [Budralazine] | 0.88 | 
CCOc1ccc2ccccc2c1C(=O)N[C@@H]1C(=O)N2[C@@H]1SC(C)(C)[C@@H]2C(=O)O [Nafcillin sodium salt monohydrate] | -0.36 | 
CN(C)C/C=C(/c1ccc(Br)cc1)c1cccnc1 [Zimelidine dihydrochloride monohydrate] | -1.32 | 
Cn1cnc2c1c(=O)[nH]c(=O)n2C [Theobromine] | 0.45 | 

Copied from the entries so far, five compounds:
Structure (SMILES) | eye size Z-score | eye size Z-score (female)
c1cnc(N2CCN(Cc3ccc4c(c3)OCO4)CC2)nc1 [Piribedil] | 1.14 | 
CCOC(=O)O[C@]1(C(=O)OCCl)CC[C@H]2[C@@H]3CCC4=CC(=O)C=C[C@]4(C)[C@H]3[C@@H](O)C[C@@]21C [Loteprednol etabonate] | 0.12 | 
Cc1ccc(NC(=O)c2ccc(CN3CCN(C)CC3)cc2)cc1Nc1nccc(-c2cccnc2)n1 [Imatinib] | -0.58 | 
O=C(O)c1cn(C2CC2)c2cc(N3CCNCC3)c(F)cc2c1=O [Ciprofloxacin hydrochloride monohydrate] | 0.49 | 
CCOc1nc2cccc(C(=O)OCc3oc(=O)oc3C)c2n1Cc1ccc(-c2ccccc2-c2noc(=O)[nH]2)cc1 [Azilsartan medoxomil] | 0.1 | 

Continued:

Structure (SMILES) | eye size Z-score | eye size Z-score (female)
CC1=NN(c2ccccc2)C(=O)C1 [Edaravone] | 0.38 | 
CCC[C@@H]1C[C@@H](C(=O)N[C@@H]([C@H]2O[C@H](SC)[C@H](O)[C@@H](O)[C@H]2O)[C@H](C)Cl)N(C)C1 [Clindamycin hydrochloride] | 0.27 | 
O=C(N[C@H](CO)[C@H](O)c1ccc([N+](=O)[O-])cc1)C(Cl)Cl [Chloramphenicol] |  | 0.26
O=C(O)CCNC(=O)c1ccccc1 [Betamipron] | 0.68 | 
Cc1ccc2c(c1)c1c3n2CCNC3CCC1 (stereo unspecified) [Pirlindole mesylate] | 1.5 | 
CN(C)CCC=C1c2ccccc2COc2ccccc21 [Doxepin hydrochloride] | -0.41 | 
CN1CCC[C@@H]1Cc1c[nH]c2ccc(CCS(=O)(=O)c3ccccc3)cc12 [Eletriptan] | 1.28 | 
CC(C)[N+](C)(CCOC(=O)C1c2ccccc2Oc2ccccc21)C(C)C [Propantheline bromide] | 0.3 | 
CC(C)Cc1ccc(CC(=O)O)cc1 [Ibufenac] | -0.26 | 
COc1ccccc1Oc1c(NS(=O)(=O)c2ccc(C(C)(C)C)cc2)nc(-c2ncccn2)nc1OCCO [Bosentan] | -0.89 | 
Nc1ccccc1S(N)(=O)=O [o-Sulfanilamide] | -0.15 | 
CN1CCN(C2Cc3ccccc3Sc3ccc(Cl)cc32)CC1 (stereo unspecified) [Octoclothepin maleate salt] | 0.44 | 
NS(=O)(=O)c1cc2c(cc1Cl)NC(C(Cl)Cl)NS2(=O)=O (stereo unspecified) [Trichlormethiazide] | -0.36 | 
CN[C@@H]1[C@H](O)[C@H](NC)[C@H]2O[C@@]3(O)C(=O)C[C@@H](C)O[C@H]3O[C@@H]2[C@H]1O [Spectinomycin dihydrochloride] | -0.96 | 
Cc1onc(-c2ccccc2Cl)c1C(=O)N[C@@H]1C(=O)N2[C@@H]1SC(C)(C)[C@@H]2C(=O)O [Cloxacillin sodium salt] | -0.1 | 
N[C@@H](C(=O)N[C@@H]1C(=O)N2C(C(=O)O)=C(Cl)CC[C@H]12)c1ccccc1 [Loracarbef] | 0.04 | 
C#Cc1cccc(Nc2ncnc3cc(OCCOC)c(OCCOC)cc23)c1 [Erlotinib] | 0.01 | 
CC(C)Nc1cccnc1N1CCN(C(=O)c2cc3cc(NS(C)(=O)=O)ccc3[nH]2)CC1 [Delavirdine] | 0.32 | 
CN[C@@H]1[C@@H](O[C@H]2O[C@H](CO)[C@@H](N)[C@H](O)[C@H]2O)OC2C[C@@H](N)[C@@H](O[C@H]3[C@H](O)[C@@H](O)[C@H](N)C[C@@H]3N)OC2[C@@H]1O (stereo partly specified) [Apramycin] | 0.5 | 
Cc1c(-c2ccccc2)oc2c(C(=O)OCCN3CCCCC3)cccc2c1=O [Flavoxate hydrochloride] | -0.21 | 
CCOC(=O)C(C)(N)Cc1cc(I)c(Oc2cc(I)c(O)c(I)c2)c(I)c1 (stereo unspecified) [Etiroxate hydrochloride] | -1.03 | 
C[C@]12CC[C@@H]3c4ccc(O)cc4CC[C@H]3[C@@H]1CC[C@@H]2O [Estradiol-17 beta] | -0.84 | 
CCCN(CCC)S(=O)(=O)c1ccc(C(=O)O)cc1 [Probenecid] | 1.2 | 
CCN(CC)C(=O)c1cccnc1 [Nikethamide] | 0.97 | 

Structure (SMILES) | eye size Z-score | eye size Z-score (female)
COc1ccc2[nH]c([S+]([O-])Cc3ncc(C)c(OC)c3C)nc2n1 (stereo unspecified) [Tenatoprazole] | -1.68 | 
CN(C)CCOC(c1ccccc1)c1ccccc1 [Diphenhydramine hydrochloride] | -0.16 | 
CC(=O)[C@H]1CC[C@H]2[C@@H]3CCC4=CC(=O)CC[C@]4(C)[C@H]3CC[C@]12C [Progesterone] | -0.05 | 
CN(C)CC/C=C1/c2ccccc2Sc2ccc(Cl)cc21 [Chlorprothixene hydrochloride] | -0.59 | 
N[C@@H](Cc1cc(I)c(Oc2cc(I)c(O)c(I)c2)c(I)c1)C(=O)O [(L) Thyroxine] | -0.05 | 
N=C(N)NC(=O)Cc1c(Cl)cccc1Cl [Guanfacine hydrochloride] | 1.3 | 
O=C(O)Cc1ccccc1Oc1ccc(Cl)cc1Cl [Fenclofenac] | 0.29 | 
Nc1cccc2c1C(=O)N(C1CCC(=O)NC1=O)C2=O (stereo unspecified) [Pomalidomide] | -0.55 | 
CN1C(=O)CC(c2ccccc2)C1=O (stereo unspecified) [Phensuximide] | -0.36 | 
CC1CNc2c(cccc2S(=O)(=O)N[C@@H](CCCNC(=N)N)C(=O)N2CC[C@@H](C)C[C@@H]2C(=O)O)C1 (stereo partly specified) [Argatroban] | -0.68 | 
CN(C)CCN(Cc1ccccc1)c1ccccn1 [Tripelennamine hydrochloride] | 0.57 | 
CC(=O)O[C@@]12CO[C@@H]1C[C@H](O)[C@@]1(C)C(=O)[C@H](O)C3=C(C)[C@@H](OC(=O)[C@H](O)[C@@H](NC(=O)OC(C)(C)C)c4ccccc4)C[C@@](O)([C@@H](OC(=O)c4ccccc4)[C@H]21)C3(C)C [Docetaxel] | -0.69 | 
Clc1ccc(CSC(Cn2ccnc2)c2ccc(Cl)cc2Cl)cc1 (stereo unspecified) [Sulconazole nitrate] | -0.13 | 
C#C[C@]1(OC(C)=O)CC[C@H]2[C@@H]3CCC4=CC(=NO)CC[C@@H]4[C@H]3CC[C@@]21CC (mixture of isomers) [Norgestimate] | 0.88 | 
CCCc1c2oc(C(=O)O)cc(=O)c2cc2c(=O)cc(C(=O)O)n(CC)c12 [Nedocromil sodium] | 0.54 | 
CC(=O)Oc1ccc(C(=C2CCCCC2)c2ccc(OC(C)=O)cc2)cc1 [Cyclofenil] | -0.22 | 
CC(=O)O[C@]1(C(C)=O)CC[C@H]2[C@@H]3C=C(Cl)C4=CC(=O)[C@@H]5C[C@@H]5[C@]4(C)[C@H]3CC[C@@]21C [Cyproterone acetate] | 0.06 | 
Clc1ccc(CO/N=C(\Cn2ccnc2)c2ccc(Cl)cc2Cl)c(Cl)c1 [Oxiconazole nitrate] | 0.31 | 
CCCSc1nc(N[C@@H]2C[C@H]2c2ccc(F)c(F)c2)c2nnn([C@@H]3C[C@H](OCCO)[C@@H](O)[C@H]3O)c2n1 [Ticagrelor] | 0.52 | 
CC(=O)OC[C@H]1O[C@@H](n2ncc(=O)[nH]c2=O)[C@H](OC(C)=O)[C@@H]1OC(C)=O [Azaribine] | 0.41 | 
O=C(O)COCCN1CCN(C(c2ccccc2)c2ccc(Cl)cc2)CC1 (stereo unspecified) [Cetirizine dihydrochloride] | 0.34 | 
N[C@@H]1CONC1=O [D-cycloserine] | 2.85 | 
N=C(N)Nc1ccc(C(=O)Oc2ccc3cc(C(=N)N)ccc3c2)cc1 [Nafamostat Mesylate] | 0.37 | 
